Source: patent US11202779B2, “Combinations for the treatment of neoplasms using quiescent cell targeting with EGFR inhibitors” (Felicitex Therapeutics, Inc., priority 2016, dated 2021)
At least one structure is not confirmed: it was looked up by name or label, or the drawing left a doubt.

Test system: H1975 spheroids
Test: Cell viability assay in 3D cell culture (spheroids), H1975
Assay type: cell-based
Conditions: seven days
Experimental: Each treatment was performed in triplicate.
Cells were incubated for 2-3 days (depending on the cell line) at 37° C. in a humidified 5% CO2 atmosphere allowing for tight spheroid formation. For the treatment, 50 μL of media was removed from each well and replaced with fresh media with compounds. […] Before reading the results, cells were incubated for the period of 4-10 days in 5% CO2 incubator at 37° C. If the treatment time exceeded 4 days, […] in each well was replaced with fresh media containing the test compound every fourth day. Each treatment was performed in duplicate. […] Prior to analysis, the spheroids were photographed at 50× magnification.

Q: Which results are given for `CN(C)C/C=C/C(=O)Nc1cc2c(Nc3ccc(F)c(Cl)c3)ncnc2cc1O[C@H]1CCOC1` [afatinib]?
A: survival of spheroid (afatinib 100 nM alone): a portion of the spheroid survived; survival of spheroid (afatinib 100 nM with Compound I-7 2.5 μM): eradicated the spheroid completely
